Values joined by “and” are separate entries in the source; they are usually repeats but may differ in a detail not shown here. Equal entries are not always repeated.
System: maximal electroshock (MES) induced seizures
Experiment: Maximal electroshock (MES) test
Format: in vivo, mice
Conditions: not given
Source text: Male Kunming mice (23–28 g) were maintained under controlled conditions with ad libitum access to standard pellet diet and water. Test compounds were formulated immediately prior to administration in normal saline containing 0.5% Tween-80. Our experiment was authorized by the Institutional Animal Care and Use Committee of Shaanxi University of Chinese Medicine (animal ethics certificate number: SUCMDL20210309027).
The MES test carried out following the method of Swinyard. A 60 Hz current (50 mA; 0.25 s duration) was delivered via corneal electrodes using a YSD-4G electro convulsion meter (Zhenghua Instruments, Huaibei, China, SN: ZH0056232). […] Test compounds were suspended in an identical vehicle. Protection was defined as abolition of tonic hindlimb extension.

SMILES	PI (MES), protective index (TD50/ED50)
C/C=C/c1ccc(OC(=O)CCCN2CCN(C(=O)/C=C/c3cc(OC)c(OC)c(OC)c3)CC2)c(OC)c1 [A3, methoxy-4-((E)-prop-1-en-1-yl)phenyl 4-(4-((E)-3-(3,4,5-trimethoxyphenyl)acryloyl)piperazin-1-yl)butanoate]	6.05
COc1cc(/C=C/C(=O)N2CCN(C(=O)CCC(=O)N3CCN(c4cccc(Cl)c4Cl)CC3)CC2)cc(OC)c1OC [B12, (E)-1-(4-(2,3-dichlorophenyl)piperazin-1-yl)-4-(4-(3-(3,4,5-trimethoxyphenyl)acryloyl)piperazin-1-yl)butane-1,4-dione]	6.92
COc1cc(/C=C/C(=O)N2CCN(CCCC(=O)N3CCN(c4cccc(Cl)c4Cl)CC3)CC2)cc(OC)c1OC [A12, (E)-1-(4-(2,3-dichlorophenyl)piperazin-1-yl)-4-(4-(3-(3,4,5-trimethoxyphenyl)acryloyl)piperazin-1-yl)butan-1-one]	5.20
COc1cc(/C=C/C(=O)N2CCN(CCCC(=O)N3CCN(C(c4ccc(F)cc4)c4ccc(F)cc4)CC3)CC2)cc(OC)c1OC [A9, (E)-1-(4-(bis(4-fluorophenyl)methyl)piperazin-1-yl)-4-(4-(3-(3,4,5-trimethoxyphenyl)acryloyl)piperazin-1-yl)butan-1-one]	8.14
COc1cc(/C=C/C(=O)N2CCN(C(=O)CCC(=O)N3CCN(C(c4ccc(F)cc4)c4ccc(F)cc4)CC3)CC2)cc(OC)c1OC [B9, (E)-1-(4-(bis(4-fluorophenyl)methyl)piperazin-1-yl)-4-(4-(3-(3,4,5-trimethoxyphenyl)acryloyl)piperazin-1-yl)butane-1,4-dione]	9.97
COc1cc(/C=C/C(=O)N2CCN(CCCC(=O)N3CCN(c4ccc(C(F)(F)F)cc4)CC3)CC2)cc(OC)c1OC [A14, (E)-1-(4-(4-(trifluoromethyl)phenyl)piperazin-1-yl)-4-(4-(3-(3,4,5-trimethoxyphenyl)acryloyl)piperazin-1-yl)butan-1-one]	6.84

System: maximal electroshock (MES) induced seizures
Experiment: not given
Parameters: method as in PMID 31539780
Conditions: reference drug; cited from earlier work

SMILES	PI (MES), protective index (TD50/ED50)
CC(C)(C)C(O)/C=C/c1ccc2c(c1)OCO2 (stereo not shown) [STP, Stiripentol, reference compound]	1.74 and 1.41
